Assay results published in patent publication US6852710B2, “2-alkoxyestradiol analogs with antiproliferative and antimitotic activity” (Southwest Foundation for Biomedical Research, priority 2001, dated 2005).
Some of these results come from one statement about several compounds together.

System: MDA-MB-435 breast cancer xenograft
Test: MDA-MB-435 breast cancer xenograft model
Assay type: in vivo, mice
Details: one-sided Student's t-test, P<0.05
Experimental: FIG. 4 illustrates the effects of compounds in an MDA-MB-435 breast cancer xenograft model. The data are the means of the groups ±SEM. Statistical significance (P<0.05) is indicated by an asterisk;
The analogs were tested for antitumor activity using an MDA-MB-435 breast cancer xenograft model. Tumor fragments of MDA-MB-435 (30 mg) were implanted subcutaneously into female athymic NCr-nu mice (SWF-1) weighing approximately 24 g. The tumor fragments were harvested from nude mice hosts. Animal weight and tumor dimensions were measured twice weekly with calipers and tumor weights estimated using 2-dimensional measurements of length and width and the formula [1×(w)^2]/2. When the tumors reached an approximate size equivalent to 175 mg (13 days after implantation) the mice were randomized to treatment or control groups and treatments were begun. The compounds were administered intraperitoneally daily for 30 days on the basis of individual animal body weights. Treatment groups contained 10 mice and the vehicle treated control group consisted of 20 mice. […] The means of the tumor burden data were analyzed for differences using a one-sided Student's t-test, with a P<0.05 considered to be significant difference. Tumor growth delay, the difference between the time for the median of each group (treatment and control) to reach a tumor burden of 1500 mg was calculated.

## COc1cc2c(cc1O)CCC1C2CC[C@@]2(C)C1[C@H]1OC(C)(C)O[C@H]1[C@@H]2O (stereo partly drawn) [2-ME2-15α, 16α, 2-Methoxy-3,15α,16α,17β-tetrahydroxyestra-1,3,5(10)-triene 15,16-acetonide]
  days with statistically significant differences between control and treated tumors: 16 to 43 days

## COc1cc2c(cc1O)CC[C@H]1C3=CC[C@H](O)[C@@]3(C)CC[C@H]21 [14-dehydro-2-ME2, 2-Methoxyestra-1,3,5(10), 14-tetraen-3,17β-diol]
  days with statistically significant differences between control and treated tumors: 16 to 43 days
